Legend:
[1] = system: A549, H1299, H1975 human lung cancer lines and BEAS-2B normal cell line, each cultured alone; test: VOCs headspace analysis (ITEX GC-MS) of mono-culture groups (Format-1), bulk cell samples 1×10^4 cells; type: cell-based; settings: bulk 1 × 10^4 cell
[2] = system: different-cell pairs of BEAS-2B, A549, H1299, H1975 without physical contact under a mutual headspace; test: VOCs headspace analysis (ITEX GC-MS) of different-cell pair co-culture headspace groups (Format-3), bulk cell samples; type: cell-based, human; settings: bulk 1 × 10^4 cell

CC(C)(C)c1cccc(C(C)(C)C)c1 [VOC40]
VOC level in headspace, area under curve (AUC) normalized by STD AUC ([1]; A (BEAS-2B) mono-culture): 5.95
VOC level in headspace, area under curve (AUC) normalized by STD AUC ([1]; B (A549) mono-culture): 8.888
VOC level in headspace, area under curve (AUC) normalized by STD AUC ([1]; C (H1299) mono-culture): 0
VOC level in headspace, area under curve (AUC) normalized by STD AUC ([1]; D (H1975) mono-culture): 3.324
VOC level in headspace, area under curve (AUC) normalized by STD AUC ([2]; A + B (BEAS-2B + A549)): 9.491
VOC level in headspace, area under curve (AUC) normalized by STD AUC ([2]; A + C (BEAS-2B + H1299)): 0
VOC level in headspace, area under curve (AUC) normalized by STD AUC ([2]; A + D (BEAS-2B + H1975)): 6.242
VOC level in headspace, area under curve (AUC) normalized by STD AUC ([2]; B + C (A549 + H1299)): 3.663
VOC level in headspace, area under curve (AUC) normalized by STD AUC ([2]; B + D (A549 + H1975)): 9.582
VOC level in headspace, area under curve (AUC) normalized by STD AUC ([2]; C + D (H1299 + H1975)): 0

COC(=O)C(OC)OC [VOC28]
VOC level in headspace, area under curve (AUC) normalized by STD AUC ([1]; A (BEAS-2B) mono-culture): 2.368
VOC level in headspace, area under curve (AUC) normalized by STD AUC ([1]; B (A549) mono-culture): 0
VOC level in headspace, area under curve (AUC) normalized by STD AUC ([1]; C (H1299) mono-culture): 0
VOC level in headspace, area under curve (AUC) normalized by STD AUC ([1]; D (H1975) mono-culture): 0
VOC level in headspace, area under curve (AUC) normalized by STD AUC ([2]; A + B (BEAS-2B + A549)): 0
VOC level in headspace, area under curve (AUC) normalized by STD AUC ([2]; A + C (BEAS-2B + H1299)): 0
VOC level in headspace, area under curve (AUC) normalized by STD AUC ([2]; A + D (BEAS-2B + H1975)): 2.03
VOC level in headspace, area under curve (AUC) normalized by STD AUC ([2]; B + C (A549 + H1299)): 0
VOC level in headspace, area under curve (AUC) normalized by STD AUC ([2]; B + D (A549 + H1975)): 0
VOC level in headspace, area under curve (AUC) normalized by STD AUC ([2]; C + D (H1299 + H1975)): 0

CC=COCC [VOC67]
VOC level in headspace, area under curve (AUC) normalized by STD AUC ([1]; A (BEAS-2B) mono-culture): 5.011
VOC level in headspace, area under curve (AUC) normalized by STD AUC ([1]; B (A549) mono-culture): 0
VOC level in headspace, area under curve (AUC) normalized by STD AUC ([1]; C (H1299) mono-culture): 6.8723
VOC level in headspace, area under curve (AUC) normalized by STD AUC ([1]; D (H1975) mono-culture): 0
VOC level in headspace, area under curve (AUC) normalized by STD AUC ([2]; A + B (BEAS-2B + A549)): 2.156
VOC level in headspace, area under curve (AUC) normalized by STD AUC ([2]; A + C (BEAS-2B + H1299)): 4.955
VOC level in headspace, area under curve (AUC) normalized by STD AUC ([2]; A + D (BEAS-2B + H1975)): 0
VOC level in headspace, area under curve (AUC) normalized by STD AUC ([2]; B + C (A549 + H1299)): 1.423
VOC level in headspace, area under curve (AUC) normalized by STD AUC ([2]; B + D (A549 + H1975)): 0
VOC level in headspace, area under curve (AUC) normalized by STD AUC ([2]; C + D (H1299 + H1975)): 1.116

CCCC(C)=O [VOC92]
VOC level in headspace, area under curve (AUC) normalized by STD AUC ([1]; A (BEAS-2B) mono-culture): 0
VOC level in headspace, area under curve (AUC) normalized by STD AUC ([1]; B (A549) mono-culture): 0
VOC level in headspace, area under curve (AUC) normalized by STD AUC ([1]; C (H1299) mono-culture): 5.421
VOC level in headspace, area under curve (AUC) normalized by STD AUC ([1]; D (H1975) mono-culture): 0
VOC level in headspace, area under curve (AUC) normalized by STD AUC ([2]; A + B (BEAS-2B + A549)): 0
VOC level in headspace, area under curve (AUC) normalized by STD AUC ([2]; A + C (BEAS-2B + H1299)): 4.886
VOC level in headspace, area under curve (AUC) normalized by STD AUC ([2]; A + D (BEAS-2B + H1975)): 0
VOC level in headspace, area under curve (AUC) normalized by STD AUC ([2]; B + C (A549 + H1299)): 1.289
VOC level in headspace, area under curve (AUC) normalized by STD AUC ([2]; B + D (A549 + H1975)): 0
VOC level in headspace, area under curve (AUC) normalized by STD AUC ([2]; C + D (H1299 + H1975)): 2.295

CCCC(C)CC(C)CC (centres unmarked) [VOC41]
VOC level in headspace, area under curve (AUC) normalized by STD AUC ([1]; A (BEAS-2B) mono-culture): 0
VOC level in headspace, area under curve (AUC) normalized by STD AUC ([1]; B (A549) mono-culture): 2.989
VOC level in headspace, area under curve (AUC) normalized by STD AUC ([1]; C (H1299) mono-culture): 0
VOC level in headspace, area under curve (AUC) normalized by STD AUC ([1]; D (H1975) mono-culture): 2.414
VOC level in headspace, area under curve (AUC) normalized by STD AUC ([2]; A + B (BEAS-2B + A549)): 2.429
VOC level in headspace, area under curve (AUC) normalized by STD AUC ([2]; A + C (BEAS-2B + H1299)): 0
VOC level in headspace, area under curve (AUC) normalized by STD AUC ([2]; A + D (BEAS-2B + H1975)): 4.767
VOC level in headspace, area under curve (AUC) normalized by STD AUC ([2]; B + C (A549 + H1299)): 0
VOC level in headspace, area under curve (AUC) normalized by STD AUC ([2]; B + D (A549 + H1975)): 0
VOC level in headspace, area under curve (AUC) normalized by STD AUC ([2]; C + D (H1299 + H1975)): 3.749
